Assay results from publication PMC9998662.

By UniProt entry, the sequences of proteins in these tests, tags left out. Where a name states a change or a piece, a line headed by the entry shows the natural chain unless it says otherwise.
UniProt P70429: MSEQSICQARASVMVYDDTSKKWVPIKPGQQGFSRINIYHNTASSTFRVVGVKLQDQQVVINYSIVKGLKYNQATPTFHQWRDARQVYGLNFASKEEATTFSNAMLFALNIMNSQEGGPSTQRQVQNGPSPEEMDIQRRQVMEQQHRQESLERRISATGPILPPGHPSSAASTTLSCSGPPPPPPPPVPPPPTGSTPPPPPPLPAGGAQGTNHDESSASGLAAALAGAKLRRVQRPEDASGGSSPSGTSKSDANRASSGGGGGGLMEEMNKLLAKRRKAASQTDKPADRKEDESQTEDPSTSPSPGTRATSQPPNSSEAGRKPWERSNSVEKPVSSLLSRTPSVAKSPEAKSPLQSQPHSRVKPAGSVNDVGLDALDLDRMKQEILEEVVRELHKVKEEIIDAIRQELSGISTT

Molecular target: T1, MIM-3xFLAG (Mus musculus) (UniProt Q8R1S4)
T1 sequence: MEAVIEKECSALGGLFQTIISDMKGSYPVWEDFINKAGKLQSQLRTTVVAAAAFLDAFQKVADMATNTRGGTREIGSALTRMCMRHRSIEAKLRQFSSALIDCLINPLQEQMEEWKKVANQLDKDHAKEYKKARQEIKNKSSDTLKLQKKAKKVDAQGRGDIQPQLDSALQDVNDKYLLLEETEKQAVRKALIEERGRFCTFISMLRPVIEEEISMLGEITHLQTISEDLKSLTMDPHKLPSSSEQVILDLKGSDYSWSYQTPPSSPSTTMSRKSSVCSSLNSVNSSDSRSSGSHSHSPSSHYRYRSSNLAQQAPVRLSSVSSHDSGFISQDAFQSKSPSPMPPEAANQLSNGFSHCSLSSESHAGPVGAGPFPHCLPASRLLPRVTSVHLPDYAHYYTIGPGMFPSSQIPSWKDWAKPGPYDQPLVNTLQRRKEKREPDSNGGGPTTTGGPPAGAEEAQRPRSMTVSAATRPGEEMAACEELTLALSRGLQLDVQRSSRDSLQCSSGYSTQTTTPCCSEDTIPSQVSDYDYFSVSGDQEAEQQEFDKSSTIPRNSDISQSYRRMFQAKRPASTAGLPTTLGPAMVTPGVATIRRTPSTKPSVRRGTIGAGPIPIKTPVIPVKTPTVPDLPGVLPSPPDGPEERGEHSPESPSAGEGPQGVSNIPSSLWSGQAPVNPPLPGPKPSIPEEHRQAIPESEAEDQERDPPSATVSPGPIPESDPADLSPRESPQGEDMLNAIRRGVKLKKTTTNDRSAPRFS
Test: co-IP; HEK293T co-transfected with MIM-3xFLAG and EVL constructs; IP with anti-FLAG antibody, Protein A/G beads; IP buffer 10% glycerol, 1% NP-40, 50 mM Tris pH 7.5, 200 mM NaCl, 2 mM MgCl2; overnight at 4°C; western blot

binding	Substance
binds	EVL mutant lacking the proline-rich domain (ΔPRD) (from UniProt P70429)
no binding	EVL ΔEVH1 mutant (Mus musculus) (domain or fragment)

No constants are given. Whether binding was seen depends on the method and setting. Binding seen in cells or lysates may run through a third protein. A result given as binding can be weak or reduced; the word gives no strength. Tags and fused reporters may be left off the sequences shown.
